In paper PMC6461963 one finds binding data, which are given here for 1 molecule.

Protein sequences, listed by entry. Tags and fused reporters are not part of them.
UniProt Q16531: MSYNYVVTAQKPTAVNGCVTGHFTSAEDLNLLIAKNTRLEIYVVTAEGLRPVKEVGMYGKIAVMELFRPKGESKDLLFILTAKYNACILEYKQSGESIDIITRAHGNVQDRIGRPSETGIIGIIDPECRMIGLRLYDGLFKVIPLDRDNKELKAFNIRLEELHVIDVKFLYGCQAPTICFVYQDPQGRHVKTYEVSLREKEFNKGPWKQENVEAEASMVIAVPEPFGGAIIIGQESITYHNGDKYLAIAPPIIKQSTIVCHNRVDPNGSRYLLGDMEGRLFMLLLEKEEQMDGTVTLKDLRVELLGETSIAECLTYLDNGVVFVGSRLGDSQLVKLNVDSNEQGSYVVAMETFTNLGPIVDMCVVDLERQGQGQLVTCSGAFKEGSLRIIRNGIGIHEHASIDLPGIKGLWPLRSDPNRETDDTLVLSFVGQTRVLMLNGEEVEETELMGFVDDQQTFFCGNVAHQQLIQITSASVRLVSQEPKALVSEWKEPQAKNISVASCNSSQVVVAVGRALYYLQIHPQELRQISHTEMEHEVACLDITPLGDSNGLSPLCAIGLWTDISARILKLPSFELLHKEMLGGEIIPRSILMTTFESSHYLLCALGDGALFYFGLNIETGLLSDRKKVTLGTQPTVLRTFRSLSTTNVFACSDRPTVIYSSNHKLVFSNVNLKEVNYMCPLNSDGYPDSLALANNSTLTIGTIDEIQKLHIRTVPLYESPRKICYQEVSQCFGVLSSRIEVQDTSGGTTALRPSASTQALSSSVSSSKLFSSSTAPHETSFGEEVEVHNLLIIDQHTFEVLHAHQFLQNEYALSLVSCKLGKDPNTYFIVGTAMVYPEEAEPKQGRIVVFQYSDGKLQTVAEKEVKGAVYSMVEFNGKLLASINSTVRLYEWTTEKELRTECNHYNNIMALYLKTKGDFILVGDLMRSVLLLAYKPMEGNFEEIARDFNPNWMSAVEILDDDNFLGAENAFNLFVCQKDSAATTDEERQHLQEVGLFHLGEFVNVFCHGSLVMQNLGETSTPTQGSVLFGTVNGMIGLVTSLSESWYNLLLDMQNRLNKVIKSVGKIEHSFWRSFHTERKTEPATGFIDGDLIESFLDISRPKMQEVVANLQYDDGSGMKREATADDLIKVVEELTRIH

In this assay the target is Flag-DDB1 (damage-specific DNA-binding protein 1) (UniProt Q16531). The assay is described as follows: co-IP; 293T cells transfected with Flag-DDB1 and GST-HBx, with or without HA-CBFβ or HA-IFIT2 (control), collected 32 h later; lysis in 50 mM Tris-HCl pH 8.0, 150 mM NaCl, 1% NP-40; ANTI-FLAG M2 Affinity Gel overnight; immunoblot (Fig. 6b).

These are yes or no findings as the source states them, for the method shown. In cells and extracts the contact can be indirect. Some entries that bind do so weakly or less than the wild type.

B1: Smc6 (protein, UniProt Q96SB8 1-1091)
chain: MAKRKEENFSSPKNAKRPRQEELEDFDKDGDEDECKGTTLTAAEVGIIESIHLKNFMCHSMLGPFKFGSNVNFVVGNNGSGKSAVLTALIVGLGGRAVATNRGSSLKGFVKDGQNSADISITLRNRGDDAFKASVYGNSILIQQHISIDGSRSYKLKSATGSVVSTRKEELIAILDHFNIQVDNPVSVLTQEMSKQFLQSKNEGDKYKFFMKATQLEQMKEDYSYIMETKERTKEQIHQGEERLTELKRQCVEKEERFQSIAGLSTMKTNLESLKHEMAWAVVNEIEKQLNAIRDNIKIGEDRAARLDRKMEEQQVRLNEAEQKYKDIQDKLEKISEETNARAPECMALKADVVAKKRAYNEAEVLYNRSLNEYKALKKDDEQLCKRIEELKKSTDQSLEPERLERQKKISWLKERVKAFQNQENSVNQEIEQFQQAIEKDKEEHGKIKREELDVKHALSYNQRQLKELKDSKTDRLKRFGPNVPALLEAIDDAYRQGHFTYKPVGPLGACIHLRDPELALAIESCLKGLLQAYCCHNHADERVLQALMKRFYLPGTSRPPIIVSEFRNEIYDVRHRAAYHPDFPTVLTALEIDNAVVANSLIDMRGIETVLLIKNNSVARAVMQSQKPPKNCREAFTADGDQVFAGRYYSSENTRPKFLSRDVDSEISDLENEVENKTAQILNLQQHLSALEKDIKHNEELLKRCQLHYKELKMKIRKNISEIRELENIEEHQSVDIATLEDEAQENKSKMKMVEEHMEQQKENMEHLKSLKIEAENKYDAIKFKINQLSELADPLKDELNLADSEVDNQKRGKRHYEEKQKEHLDTLNKKKRELDMKEKELEEKMSQARQICPERIEVEKSASILDKEINRLRQKIQAEHASHGDREEIMRQYQEARETYLDLDSKVRTLKKFIKLLGEIMEHRFKTYQQFRRCLTLRCKLYFDNLLSQRAYCGKMNFDHKNETLSISVQPGEGNKAAFNDMRALSGGERSFSTVCFILSLWSIAESPFRCLDEFDVYMDMVNRRIAMDLILKMADSQRFRQFILLTPQSMSSLPSSKLIRILRMSDPERGQTTLPFRPVTQEEDDDQR
Take B1: the binding entry is “binds”.
